Data as given in PubChem BioAssay AID743454 (Peter MacCallum Cancer Centre, 2014)

- Assay: 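Genes whose loss kills vorinostat-resistant colon cancer cells under vorinostat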 (primary screen)
- Cell system: human HCT116-VR colon cancer cells, selected for vorinostat resistance
- Reagent: siRNA pool against human genes, 40 nM siRNA pool
- Timing: vorinostat for 24 h, read-out about 72 h after transfection
- Treatment: vorinostat at 2.5 µM final
- Detection: 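Two measures, CellTiter-Fluor viability and luminescent caspase 3/7 activity, each as fold change against same-plate mock wells, mean of duplicates, then screen-wide robust z-score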
- Reading the numbers: viability robust z-score: higher = more viable cells than screen typical; caspase robust z-score: higher = more caspase 3/7 activity than screen typical
- Call rule: 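Hits are knock-downs in viability class RV1/RV2 or caspase class CA1/CA2, excluding ones that killed cells in the no-drug cell-count arm; hits then retested with single siRNAs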
Shown is an unselected part of about 18,000 deposited reagents. 450 of them (2.5%) count as active. 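Single biological run; no consistent viability z cut-off exists, so the class columns, not z-scores, define the calls.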 Entries without a mark were called inactive. The numbers tell different reagents against one gene apart.

target | reagent | viability hit class | caspase hit class | viability robust z-score | caspase robust z-score
GAL3ST4 (galactose-3-O-sulfotransferase 4) | 1 | no change | no change | -0.15 | 1.68
KBTBD6 (kelch repeat and BTB domain containing 6) | 1 | no change | no change | 0.68 | -0.4
PIK3R5 (phosphoinositide-3-kinase regulatory subunit 5) | 1 | no change | no change | -0.65 | 1.42
SLFN13 (schlafen family member 13) | 1 | no change | no change | -1.16 | 2.79
UPF2 (UPF2 regulator of nonsense mediated mRNA decay) | 1 | no change | no change | 0.48 | 1.02
OR52M1 (olfactory receptor family 52 subfamily M member 1) | 1 | no change | no change | -2.03 | -0.34
DSC1 (desmocollin 1) | 1 | no change | no change | 0.36 | 0.55
HPSE (heparanase) | 1 | no change | no change | 0.38 | 0.36
GUK1 (guanylate kinase 1) | 1 | no change | no change | -0.38 | -0.98
DENND2D (DENN domain containing 2D) | 1 | no change | no change | 0.64 | 0.53
OR6C4 (olfactory receptor family 6 subfamily C member 4) | 1 | no change | no change | 0.04 | -0.78
COX10 | 1 | no change | no change | -0.92 | 0.62
PSAPL1 (prosaposin like 1) | 1 | no change | no change | -0.26 | -1.12
SOCS1 (suppressor of cytokine signaling 1) | 1 | no change | no change | 0.34 | 1.41
XKR6 (XK related 6) | 1 | RV2 (reduced viability) (active) | no change | -4.62 | 2.5
KPNA1 (karyopherin subunit alpha 1) | 1 | no change | no change | 0.9 | -0.28
CCDC51 (coiled-coil domain containing 51) | 1 | no change | no change | -1 | 1.22
CALML3 (calmodulin like 3) | 1 | no change | no change | -0.72 | 3.27
LDLR (low density lipoprotein receptor) | 1 | no change | no change | -0.38 | 0.81
CDC25A (cell division cycle 25A) | 1 | no change | no change | -0.08 | -0.42
LCOR (ligand dependent nuclear receptor corepressor) | 1 | no change | no change | 1.03 | -0.26
LCOR (ligand dependent nuclear receptor corepressor) | 2 | no change | no change | 1.52 | 0.26
BATF3 (basic leucine zipper ATF-like transcription factor 3) | 1 | no change | no change | -1.69 | 2.33
SYCP3 (synaptonemal complex protein 3) | 1 | no change | no change | 0.3 | 0.99
COL14A1 (collagen type XIV alpha 1 chain) | 1 | no change | no change | 0.5 | -0.62
PRDM13 (PR/SET domain 13) | 1 | no change | no change | -2.15 | 2.46
YAP1 (Yes1 associated transcriptional regulator) | 1 | no change | no change | -0.82 | 1.08
NAT10 (N-acetyltransferase 10) | 1 | no change | no change | -0.16 | -0.9
ST7 (suppression of tumorigenicity 7) | 1 | no change | no change | -0.2 | -0.85
PTX4 (pentraxin 4) | 1 | no change | no change | 0.94 | -0.6
PTRH2 (peptidyl-tRNA hydrolase 2) | 1 | no change | no change | 0.97 | 0.28
OR6X1 (olfactory receptor family 6 subfamily X member 1) | 1 | no change | no change | -0.82 | 1.04
CAV1 (caveolin 1) | 1 | no change | no change | -0.18 | -1.07
JMJD7-PLA2G4B (JMJD7-PLA2G4B readthrough) | 1 | no change | no change | -1.66 | 0.34
SPAG4 (sperm associated antigen 4) | 1 | no change | no change | 0.75 | -0.43
ADGRB3 (adhesion G protein-coupled receptor B3) | 1 | no change | no change | -0.32 | 1.28
GCC2 (GRIP and coiled-coil domain containing 2) | 1 | no change | no change | 0.37 | -0.34
MLH1 (mutL homolog 1) | 1 | no change | no change | 0.91 | 0.17
SLC25A40 | 1 | no change | no change | -0.14 | 0.16
THNSL2 (threonine synthase like 2) | 1 | no change | no change | -1.36 | 0.04
GAGE4 (G antigen 4) | 1 | no change | no change | 0.81 | -0.6
ADH4 (alcohol dehydrogenase 4 (class II), pi polypeptide) | 1 | no change | no change | -1.09 | 0.64
FAM153B (family with sequence similarity 153 member B) | 1 | no change | no change | 0.17 | -0.54
IFT80 (intraflagellar transport 80) | 1 | no change | no change | 0.88 | -0.79
PRSS48 (serine protease 48) | 1 | no change | no change | 0.95 | 1.46
PRDM8 (PR/SET domain 8) | 1 | no change | no change | -0.49 | 2.53
COX14 (cytochrome c oxidase assembly factor COX14) | 1 | no change | no change | -0.35 | -0.79
RNF44 (ring finger protein 44) | 1 | no change | no change | 0.22 | 2.33
OR1N2 (olfactory receptor family 1 subfamily N member 2) | 1 | no change | no change | -0.32 | -0.15
CYS1 (cystin 1) | 1 | no change | no change | 0.06 | -0.95
KLHL26 (kelch like family member 26) | 1 | no change | no change | -0.12 | 1.92
LMO1 (LIM domain only 1) | 1 | no change | no change | -0.4 | 0.06
TCP11L2 (t-complex 11 like 2) | 1 | no change | no change | -0.3 | 0.74
ARCN1 (archain 1 coat protein complex I subunit delta) | 1 | no change | no change | -2.76 | 2.35
AS3MT (arsenite methyltransferase) | 1 | no change | no change | -1.32 | -1.13
SCN1B (sodium voltage-gated channel beta subunit 1) | 1 | no change | no change | -1.02 | 1.62
ZFP3 (ZFP3 zinc finger protein) | 1 | no change | no change | 0.72 | 0.05
